Results as given in the supplement of paper PMC3334620.
Over roughly 33,000 sequences, “E-score (-0.5 to 0.5)” has its median near -0.016; the highest 2% begin near 0.3. Some of the results follow.

These sequences were tested against T1, Yer184c (UniProt P39961) (assay: PBM E-score (8-mer binding enrichment) (E-score (-0.5 to 0.5)); higher = stronger / more preferred TF binding). Settings: protein concentration: 100 nM; construct: GST-full length.
T1 sequence: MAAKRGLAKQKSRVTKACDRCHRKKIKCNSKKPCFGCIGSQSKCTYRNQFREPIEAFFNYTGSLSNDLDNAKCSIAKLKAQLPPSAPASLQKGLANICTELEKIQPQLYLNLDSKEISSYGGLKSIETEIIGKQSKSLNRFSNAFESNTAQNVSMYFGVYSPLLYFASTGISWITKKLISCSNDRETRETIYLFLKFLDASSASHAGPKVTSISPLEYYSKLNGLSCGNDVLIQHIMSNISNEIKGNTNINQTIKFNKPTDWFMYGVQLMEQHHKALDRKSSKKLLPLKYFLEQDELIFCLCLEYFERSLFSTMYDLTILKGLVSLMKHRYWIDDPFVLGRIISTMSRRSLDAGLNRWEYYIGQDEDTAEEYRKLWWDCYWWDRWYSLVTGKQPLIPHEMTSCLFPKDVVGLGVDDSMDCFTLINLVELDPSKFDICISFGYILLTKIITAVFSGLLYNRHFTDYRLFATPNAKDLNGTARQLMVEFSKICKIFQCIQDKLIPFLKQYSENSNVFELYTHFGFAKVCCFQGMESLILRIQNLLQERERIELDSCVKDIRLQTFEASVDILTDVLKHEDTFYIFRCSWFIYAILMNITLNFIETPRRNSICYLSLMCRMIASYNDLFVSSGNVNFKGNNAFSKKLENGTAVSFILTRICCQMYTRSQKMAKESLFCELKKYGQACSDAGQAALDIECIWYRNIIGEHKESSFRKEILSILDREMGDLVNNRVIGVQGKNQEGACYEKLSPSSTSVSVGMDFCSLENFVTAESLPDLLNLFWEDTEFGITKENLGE
Outline: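 Detection of bound protein used fluorescent anti-GST, with scans normalised by masliner. The proteins were GST-tagged yeast transcription factors applied at about 100-200 nM to universal all-10-mer Agilent arrays made double-stranded by primer extension. Each ungapped eight-base word, pooled with its reverse complement, was scored with an E-score from the Universal PBM Analysis Suite.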

Sequence	PBM E-score
AATTTTCT	0.0125
AACAGTCT	-0.0276
GATCTAAC	0.119
CCCCTCCG	-0.00064
AACCAATA	0.136
AAGTGTTG	0.162
TACAGTCA	-0.0508
AACGAACC	0.0449
TGCCCCCA	-0.41
CCAGTTGC	-0.131
ATCATTAA	0.307
ACAGCGAA	0.117
TGAGAGCA	-0.0441
ACCGTTCG	0.0905
CATCAGCA	-0.123
CGTGGCTA	-0.18
GATCCATC	-0.00243
CATTGGGA	-0.157
AATCAATA	0.237
ACGAAGAC	-0.219
CGCTCTGA	-0.0592
CCCCGGTC	-0.0178
CCTTCGAC	-0.158
GATCTCTA	-0.0569
ACTTAACG	-0.204

Sequence	PBM E-score
CACGCTGC	-0.212
CAAGAGGC	-0.146
AGGTCCAC	-0.141
AAAGCGGT	-0.0566
ATGTTCGC	-0.144
CAGTGTTC	0.147
AAATCTGT	-0.0223
AAAATAGT	0.073
CCACTGCG	-0.00892
ATCTCGTC	0.147
AGCCCAAG	-0.228
GAGCGGCC	0.0204
ACAAGCGA	-0.015
CCTGATAC	0.041
CGCCTTTA	-0.078
CAATTATA	0.209
CGGTAGTA	0.0519
CCAGTCTA	-0.0793
GCTTGTGA	-0.257
GCTGCCTA	-0.0537
ACGGGTGC	-0.0553
AAATCTAC	0.138
ACCTGTCA	-0.0979
CACCTATG	-0.284
GCGTGCTA	-0.328

Sequence	PBM E-score
ATAGATGG	-0.223
CTGCTCTA	-0.105
CATGTTCC	-0.0899
ACACCTAG	-0.287
CGGCACGA	0.207
GATCTACA	0.177
ACAGACCT	0.0177
ACGGTTGA	-0.0221
AGTACCCG	0.122
AAAATTCA	0.277
CAAAGGTC	-0.123
AATCGGAT	0.327
CCAGTCGA	-0.0181
GGGAACGA	-0.198
AGTCTTCG	0.0497
CCCTGTCA	-0.279
GGTTGTTA	0.108
CGAACCAG	0.238
AATGCAAT	-0.256
AGGGCAGA	-0.295
ACCCTGGA	-0.382
TCTACCAA	-0.133
ATCGAGCG	0.0386
CCCACAAA	0.136
CTTACGGA	0.0868

Sequence	PBM E-score
CGGAGAAG	0.106
AAATAGTG	0.21
AGTAAGAT	0.014
AACTCTCA	0.0144
CTCCTGGC	-0.118
GACTGGAA	-0.0358
CAGTGGGA	-0.199
CATCAAAC	-0.0426
GGGTTGGA	-0.00521
ACGCCCAA	-0.14
CGGCTGGA	0.0802
AGTAATAC	0.106
AAAGTAAC	0.0507
ACCTCTAG	-0.176
AGTGAATA	0.0757
GGCGCAAC	0.0406
AGGCGCCC	-0.22
CGACAGTA	-0.109
AACACACC	0.105
ATATTGCC	-0.0158
ACAAAGTA	0.229
AGTACATC	-0.0579
CATTGCGC	-0.0922
GGCACCAC	-0.0332
AATTCCCT	-0.0636

Some of the entries so far, in CSV form:
Sequence,PBM E-score
CACGCTGC,-0.212
CAAGAGGC,-0.146
AGGTCCAC,-0.141
AAAGCGGT,-0.0566
ATGTTCGC,-0.144
CAGTGTTC,0.147
AAATCTGT,-0.0223
AAAATAGT,0.073
CCACTGCG,-0.00892
ATCTCGTC,0.147
AGCCCAAG,-0.228
GAGCGGCC,0.0204
ACAAGCGA,-0.015
CCTGATAC,0.041
CGCCTTTA,-0.078
CAATTATA,0.209
CGGTAGTA,0.0519
CCAGTCTA,-0.0793
GCTTGTGA,-0.257
GCTGCCTA,-0.0537
ACGGGTGC,-0.0553
AAATCTAC,0.138
ACCTGTCA,-0.0979
CACCTATG,-0.284
GCGTGCTA,-0.328
ATAGATGG,-0.223
CTGCTCTA,-0.105
CATGTTCC,-0.0899
ACACCTAG,-0.287
CGGCACGA,0.207
GATCTACA,0.177
ACAGACCT,0.0177
ACGGTTGA,-0.0221
AGTACCCG,0.122
AAAATTCA,0.277
CAAAGGTC,-0.123
AATCGGAT,0.327
CCAGTCGA,-0.0181
GGGAACGA,-0.198
AGTCTTCG,0.0497
CCCTGTCA,-0.279
GGTTGTTA,0.108
CGAACCAG,0.238
AATGCAAT,-0.256
AGGGCAGA,-0.295
ACCCTGGA,-0.382
TCTACCAA,-0.133
ATCGAGCG,0.0386
CCCACAAA,0.136
CTTACGGA,0.0868
CGGAGAAG,0.106
AAATAGTG,0.21
AGTAAGAT,0.014
AACTCTCA,0.0144
CTCCTGGC,-0.118
GACTGGAA,-0.0358
CAGTGGGA,-0.199
CATCAAAC,-0.0426
GGGTTGGA,-0.00521
ACGCCCAA,-0.14
CGGCTGGA,0.0802
AGTAATAC,0.106
AAAGTAAC,0.0507
ACCTCTAG,-0.176
AGTGAATA,0.0757
GGCGCAAC,0.0406
AGGCGCCC,-0.22
CGACAGTA,-0.109
AACACACC,0.105
ATATTGCC,-0.0158
ACAAAGTA,0.229
AGTACATC,-0.0579
CATTGCGC,-0.0922
GGCACCAC,-0.0332
AATTCCCT,-0.0636

(next part)

Sequence	PBM E-score
TAAGTATA	0.193
TCCCCAGA	-0.303
ATAGACCA	-0.0848
ATCACCGA	0.21
GCGAGTAA	0.216
GTGCACTA	0.139
TCAGAACA	0.106
GCTGTCAA	0.0182
AAGGAAGG	-0.0761
CACTAGTC	-0.184
CCCACGGG	-0.0754
ACCAGTGC	-0.249
CGGTAAGA	0.256
AAGTGAGT	-0.1
CAAGCTCC	-0.144
AACTGTGC	-0.148
CTTGGTCA	0.053
GCACGCTA	-0.112
CGCTCATC	0.0551
GCGGAAGA	0.142
CAGATCGC	0.0154
AGCGGGAG	-0.192
ATATCCCC	-0.196
GGGTCACC	-0.234
AGGGCTAC	-0.306

Sequence	PBM E-score
AGCAGCTC	-0.16
ATGGGTCC	-0.0706
CGCGTGTC	0.202
TATGGGCA	-0.111
TGTTTAAA	0.0737
GCGGCCCC	-0.281
AGGTCAGG	-0.256
ATCTGGAC	-0.0747
GGATTTCA	0.201
ATTTTAGC	0.0506
ATTAGGTG	0.0154
ACAGCTAA	-0.0181
ATCATTAG	0.037
GAACAAGC	-0.00628
GAAAAGCC	0.0253
ATCATACA	0.245
ACCTGGTA	-0.301
AGTTGATA	0.173
AGTCACTC	-0.0449
GACTCACA	-0.065
CTGAACAG	0.108
ACGCGAAA	-0.006
CTCGATCA	0.0427
ACAGGGCA	-0.147
GTCTTATA	0.00725

Sequence	PBM E-score
GGTATTCA	0.136
CACCTGTC	-0.121
AGCACTCC	0.0622
CAGATAAG	0.0249
CTGGAACA	0.122
GCGCTGCA	-0.143
GTCCCGCA	-0.0234
CCCGCTGC	-0.167
CGCGCTGC	-0.177
AGCAAACC	0.0871
ACGGTCCC	-0.205
CGGTCACG	-0.0759
GCCGGCTA	0.266
ATCTAGTC	-0.0233
AAAACTGT	0.0544
AAACTTAC	-0.0665
CGTCCTCC	-0.111
AGCTAAAC	-0.00263
CGTTATGA	-0.146
AGAGTCGA	-0.191
CTGACGAA	0.0607
ATGGGATC	-0.0683
CCCCACCA	-0.113
GACGCTAA	-0.153
GCACTGCA	-0.0785

Sequence	PBM E-score
GACAATTA	0.135
ACGAGGCG	0.0616
CCGAGGAG	0.0862
CGGAGTAG	0.252
AGATAGCT	-0.00764
AGTGTTTC	-0.0499
TGCTCACA	-0.216
AGTTGAAC	-0.0657
AAGAATAC	0.128
ATACTCGG	0.107
GCAGGCGC	0.0213
ATTCGAAC	0.144
GCGCACGC	-0.137
TGGATGAA	-0.0386
CGCCCCCG	-0.103
ACTTACGC	-0.0496
GTCGGGGA	-0.0792
GACTCTGA	-0.0728
AAGGCCCC	-0.155
ACTGTGTC	0.0251
ACGAACAA	0.275
AATTAGGG	-0.187
AGTGTAAC	-0.0111
GAAGAATA	-0.0112
GCCACACA	-0.00275

Sequence	PBM E-score
CACGCACA	-0.0326
CGGGGACG	-0.15
AGGGAGCC	-0.301
ACAATCAC	-0.0265
CTGGCTAA	-0.115
CAATGGTA	-0.0492
AGATATCC	0.0863
AAATGATT	0.316
ATGTCAGA	-0.0803
CTACTGGA	-0.271
TCCGTGAA	0.283
ACGATCGC	0.0633
AGCGAACA	0.146
AGGGACAA	-0.105
CACTTGAG	-0.175
GTAAAGGA	0.0974
ACCCCCTA	-0.41
GACCAGAA	-0.0843
ACCAACCG	0.127
GCGAGGCC	-0.266
GCCGGGCC	0.169
ACGAATAA	0.0316
GGGCCTTA	-0.209
GTTTCGAA	-0.00445
AGGTCTCG	-0.144

Sequence	PBM E-score
TCCTTGCA	-0.182
AGCCCCCA	-0.36
GTACGAAC	0.288
GCAGAACA	-0.0566
CACGAACA	0.187
ATGTTTGA	0.0399
TCCTGGCA	-0.0813
CGCCGGGA	0.312
GCGCTCCC	-0.143
CATGTATA	-0.00805
ATAACGTA	0.128
ATGCTGTG	-0.0237
TAAGAGCA	-0.0223
GCGAATCA	-0.00378
GCTTAGAC	-0.317
ATGAGTGG	-0.229
CCAAGGCC	-0.136
CAATAAAG	0.188
ACGCGCAT	-0.0398
CCCCTGGA	-0.237
CCCGACGA	0.0666
CCTAGTAG	-0.103
ATTGATAA	0.172
CCTGGTAA	-0.0866
ACCGAATA	0.173

Sequence	PBM E-score
CAAGACGG	-0.158
GTCCCGGA	0.318
CAGATGGG	-0.0954
ACCATCGT	-0.108
CACCATGC	-0.226
GAGTTTTA	0.159
AGCACAAA	0.194
GCGGAATA	0.205
GCATGAAC	0.037
CGGCGTTC	0.208
CTTCCAAC	0.0172
CGCAGTCC	-0.124
GAGGCTTA	-0.176
GTGGCTTA	-0.218
CGGTAGGC	-0.094
CGTAGCAA	-0.0635
AGGGGAGA	-0.224
AGTGTACA	-0.0626
TTTTAAAA	0.247
ACACATAA	0.188
TCTCGGCA	0.35
CCCCTTAA	-0.227
AACGGGAG	0.0873
TCACGCGA	0.0977
GCACGCAC	-0.129

Sequence	PBM E-score
GAGCTTTA	-0.023
GCGGGACC	-0.0189
AAGCTGCT	-0.121
TAGACGGA	0.176
ACACGTAG	-0.233
CCTCGAGA	-0.107
ACCTCACT	-0.0518
CGTGACGA	0.0606
TCCCGCAA	0.0329
ACACTACA	0.206
GGAGTTGA	0.0129
ACGGAGGC	-0.0351
GATCACGC	0.124
TATTACCA	0.139
ACGAATAG	-0.0621
CTCCTAGC	-0.186
CCAGTAGG	-0.188
ACTCTCCG	0.154
CCCCCCTC	-0.412
TATAGTAA	0.182
TAGTACGA	0.0695
CGAGTCGC	-0.136
AAGCGCAT	-0.19
ACCAATTA	0.131
GACAACAC	0.16

Sequence	PBM E-score
GCGGTAGA	-0.141
TATACAGA	0.204
CGCATACA	0.0334
ACTCTTAT	0.124
TCAGGACA	0.157
CGCGTCTC	0.0597
CATCGCAC	-0.0543
GACCGTTA	0.0236
ACCCACTG	-0.131
CAGTACCC	-0.283
GGCGTTCA	0.0444
ACCTAAAA	0.0578
GTTTTTAA	0.203
AACCCATA	0.129
GCTCCACC	-0.044
ACCCCTCG	-0.223
AGTGACTG	-0.192
AGCTCAAC	-0.00098
ACCGTCGG	0.0379
ATCGCCGG	0.39
AATGAAAT	0.253
AACTCGGT	0.129
TCTCTGAA	-0.0476
AAAAAGAA	0.165
GCTCTACC	-0.295

Sequence	PBM E-score
AACATTGT	0.0456
AGTATCCC	-0.0953
ACATGATG	-0.179
ATAGAATC	0.128
AATTACGG	0.234
ACGAGAGA	0.0456
ATGATGGC	-0.121
AGCTACAA	0.0644
AGCGGCCA	-0.161
CGATCCCC	-0.121
ATTCAGTC	-0.0628
AAAATAGA	0.265
AAATCACA	0.0406
CCCGTGCC	-0.00029
GATGCTAC	-0.109
AGTGCTGC	-0.136
CAGTTATC	0.0261
AAAATCTA	0.203
CAGGTTAA	-0.146
AAACTCTA	-0.0413
CTATGAGA	-0.0159
AACCCAGG	-0.149
AGTCGGTA	0.103
